From patent US20100279318A1 come the findings set out here.

Experiment [1] deals with Dopamine D1 receptor fused to GFP (D1-GFP) (human; Aequoria victoria) (UniProt P21728+P42212). The experiment is described as follows: NLS co-trafficking assay, co-transfected HEK cells, confocal microscopy.
Experiment [2] deals with D2 dopamine receptor fused to GFP (D2-GFP) (Aequoria victoria) (UniProt P14416+P42212). The experiment is described as above.

Results are given in words; binding and its absence hold for the method and conditions named. Some results given as binding are weak or reduced against the parent protein; the word gives no strength.

With “Dopamine D1 receptor containing a NLS (D1-NLS) (from UniProt P21728 1-446)”, the binding result in experiment [1] and in experiment [2] was “binds” in each case.
